# Percent effect of library compounds

Data taken from ChEMBL document CHEMBL3988442, “University of Dundee, Small-Polar-MMV Screening Library” (2021).

T. brucei: 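Whole-parasite assay of Trypanosoma brucei over 72 hours; the read-out is not stated. Tested at 30 µM. Direction is inferred from retests: higher values go with stronger inhibition. Values scatter widely below zero; nearly all retest evidence comes from the higher of the two concentrations used. Of about 64,000 compounds tested this way, about 940 (1.5%) reached 50% or more in at least one test.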
Leishmania in macrophages: 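Cell assay of Leishmania donovani living inside macrophages; the read-out is not stated. Concentration: 30 µM. Direction is inferred from retests: higher values go with stronger inhibition. Of about 69,000 compounds tested this way, about 1,000 (1.5%) reached 50% or more in at least one test.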

The filed quantity is “Percent Effect” (%).
The record does not define 0% and 100%; most values in the screen are far below 50% and negative numbers occur (in some assays of this library far below -100).
This is an unselected part of the compounds tested.

{"smiles": "CC(C)CCN1C2(CCN(C(=O)CN(C)C)C2)c2ccccc2S1(=O)=O.O=C(O)C(F)(F)F", "stereo": "stereo not shown", "T. brucei": -2.24, "Leishmania in macrophages": 8.187}
{"smiles": "CNC(=O)NC(=O)CNC(CC(F)(F)F)c1ccc(F)cc1", "stereo": "stereo not shown", "T. brucei": -51.26, "Leishmania in macrophages": -8.709}
{"smiles": "COc1ccccc1C(=O)N(C)Cc1ncc(C)c(OC)c1C", "T. brucei": 22.82, "Leishmania in macrophages": 9.738}
{"smiles": "COc1cc(N2CCCC(CO)(Cc3ccccc3F)C2)ncn1", "stereo": "stereo not shown", "T. brucei": -9.866, "Leishmania in macrophages": 63.9}
{"smiles": "CCc1cc(CNC(=O)N2CCN(c3nc(C)c(C)s3)CC2)on1", "T. brucei": -10.23, "Leishmania in macrophages": 2.99}
{"smiles": "CCOCCN1CCN(CC(=O)N2CCCC2)CC1C", "stereo": "stereo not shown", "T. brucei": 0.559, "Leishmania in macrophages": 27.24}
{"smiles": "C[C@@H]1CN(Cc2cc(C3CCCCC3)no2)CC[C@]1(C)O", "T. brucei": -1.24, "Leishmania in macrophages": 23.3}
{"smiles": "Clc1ccc(C2(CNC3=NCCN3)CCCCC2)cc1.I", "T. brucei": 18.91, "Leishmania in macrophages": 1.147}
{"smiles": "Cc1cccc(Cn2cc(Br)c(NS(C)(=O)=O)n2)c1", "T. brucei": -5.52, "Leishmania in macrophages": -41}
{"smiles": "CCCN(C(=O)c1ccc(-n2ccnn2)cc1)c1cccnc1", "T. brucei": 0.8649, "Leishmania in macrophages": 9.178}
{"smiles": "CC(O)CCN(C)C(=O)Nc1cccc(F)c1", "stereo": "stereo not shown", "Leishmania in macrophages": 1.493}
{"smiles": "[H][C@]12CC[C@]([H])(CN(C(=O)N(C)C)C1)N(C(=O)Cc1c(C)nc(C)[nH]c1=O)C2", "T. brucei": -46.21, "Leishmania in macrophages": -12.74}
{"smiles": "[H][C@@]12CCCO[C@]1([H])[C@@H](OCC1CCOCC1)CN2C(=O)c1ccnnc1", "T. brucei": -10.32, "Leishmania in macrophages": 17.86}
{"smiles": "COc1cc(F)c(S(=O)(=O)N2c3ncccc3NC(=O)C2C)cc1OC", "stereo": "stereo not shown", "T. brucei": 15.79, "Leishmania in macrophages": 4.77}
{"smiles": "Cc1cnn(CC2CCCCN2C(=O)Cc2c(C)nn(C)c2C)c1", "stereo": "stereo not shown", "T. brucei": -6.545, "Leishmania in macrophages": 25.9}
{"smiles": "CCCC1c2cccn2CCN1C(=O)Cn1cnc2sc(C)cc2c1=O", "stereo": "stereo not shown", "T. brucei": -9.094, "Leishmania in macrophages": -19.81}
{"smiles": "Cc1nc(C)c(S(=O)(=O)NC(=O)c2ccoc2)s1", "T. brucei": -10.98, "Leishmania in macrophages": 7.325}
{"smiles": "CCC(C)(CNC(=O)Nc1nncs1)N1CCOCC1", "stereo": "stereo not shown", "T. brucei": -64.75, "Leishmania in macrophages": 23.93}
{"smiles": "Cc1ccsc1[C@@H]1CCN(C(=O)CCC(=O)N2CCCCCC2)C[C@H]1O", "T. brucei": -4.197, "Leishmania in macrophages": 3.598}
{"smiles": "CCCn1nnc(NCc2ccccc2OCc2ccc(Cl)cc2)n1", "T. brucei": 35.43, "Leishmania in macrophages": -24.1}
{"smiles": "CC(C)Nc1ncccc1C(=O)NCc1ncc[nH]1", "T. brucei": -18.61, "Leishmania in macrophages": 1.289}
{"smiles": "COCCn1ccc2cc(C(=O)NC3CCOC(C)(C)C3)ccc21", "stereo": "stereo not shown", "Leishmania in macrophages": 4.385}
{"smiles": "CNC(=O)[C@@H]1C[C@@H](N)CN1C(=O)CCSCc1ccc(F)cc1", "T. brucei": -7.026, "Leishmania in macrophages": 24.92}
{"smiles": "CSCC(=O)N1CCOC(c2nc(C)n[nH]2)C1", "stereo": "stereo not shown", "T. brucei": -12.44, "Leishmania in macrophages": -23.29}
{"smiles": "O=C(O)c1ccc(CNC(=O)C2CCN(C(=O)C3CCC3)CC2)s1", "T. brucei": -69.21, "Leishmania in macrophages": -13.62}
{"smiles": "CC1=Nc2c(c(O)nn2C(C)C)C(c2cn(C)nc2C)S1", "stereo": "stereo not shown", "Leishmania in macrophages": -7.725}
{"smiles": "COCc1nc(CNC2CCCC(C)(C)C2)no1", "stereo": "stereo not shown", "T. brucei": 12.2, "Leishmania in macrophages": 9.227}
{"smiles": "Cc1cnn(CC2CN(CCS(C)(=O)=O)CCO2)c1", "stereo": "stereo not shown", "T. brucei": -0.8366, "Leishmania in macrophages": 0.2048}
{"smiles": "Cc1nc(NCCc2ccccc2)cc(C(=O)N2CCCCC2)n1", "Leishmania in macrophages": -56.37}
{"smiles": "CCn1ccc(CNC(=O)c2cc(OC)cc(OC)c2)n1", "T. brucei": -9.325, "Leishmania in macrophages": 17.07}
{"smiles": "O=S(=O)(Cc1c(F)cccc1Cl)NCCCN1CCCCCC1", "T. brucei": 13.34, "Leishmania in macrophages": 21.66}
{"smiles": "O=C(CC1CCN(CCc2ccccc2)CC1)NC1CCOCC1", "Leishmania in macrophages": 28.73}
{"smiles": "CC(C)c1nnc(CN2CCCC2Cn2cncn2)o1", "stereo": "stereo not shown", "T. brucei": 24.69, "Leishmania in macrophages": 36.27}
{"smiles": "COCCCN1CCN(CCOC)C(C)C1", "stereo": "stereo not shown", "T. brucei": -8.556, "Leishmania in macrophages": 23.91}
{"smiles": "CCCNS(=O)(=O)Cc1ccc(Br)cc1", "T. brucei": -10.81, "Leishmania in macrophages": 18.53}
{"smiles": "Cc1nc(C)n(C2CCCN(C(=O)c3cc(C4CC4)on3)C2)n1", "stereo": "stereo not shown", "T. brucei": -1.99, "Leishmania in macrophages": 16.62}
{"smiles": "COc1ccc(Cl)c(NCC(=O)NCC(=O)N2CCCC2)c1", "T. brucei": 9.314, "Leishmania in macrophages": 8.894}

For reference, 4 entries once more:

SMILES,T. brucei,Leishmania in macrophages
CCCN(C(=O)c1ccc(-n2ccnn2)cc1)c1cccnc1,0.8649,9.178
CNC(=O)NC(=O)CNC(CC(F)(F)F)c1ccc(F)cc1 (stereo not shown),-51.26,-8.709
CC(C)c1nnc(CN2CCCC2Cn2cncn2)o1 (stereo not shown),24.69,36.27
O=C(O)c1ccc(CNC(=O)C2CCN(C(=O)C3CCC3)CC2)s1,-69.21,-13.62